In assay [1] the target is Full-length Mvp1 (codons 1-511) (S. cerevisiae) (UniProt P40959). The experiment in a line: cryo-EM structure; single-particle cryo-EM, ~5 uM protein on Quantifoil grids, Titan Krios 300 kV, D2 symmetry imposed, 4.2 Å map; no lipid or lipid headgroups; both purified.
Assay [2] has the same target. The experiment in a line: SEC-MALS; Mvp1 tetramers incubated with the PI3P headgroup or DiC8 PI3P; data not shown; both purified. (Size exclusion chromatography separates by hydrodynamic size, large species first.)

These results are taken from publication PMC7083883, “The cryo-EM structure of the SNX–BAR Mvp1 tetramer” (Nature Communications, 2020).

Results are given in words; binding and its absence hold for the method and conditions named. Some binding calls cover weakened binding; strength is not graded here.

B1: Full-length Mvp1 (codons 1-511) (natural protein, S. cerevisiae, UniProt P40959 1-511, looked up)
chain: MDNYEGSDPWNTSSNAWTKDDDHVVSTTNSEPSLNGISGEFNTLNFSTPLDTNEEDTGFLPTNDVLEESIWDDSRNPLGATGMSQTPNIAANETVIDKNDARDQNIEESEADLLDWTNNVRKTYRPLDADIIIIEEIPEREGLLFKHANYLVKHLIALPSTSPSEERTVVRRYSDFLWLREILLKRYPFRMIPELPPKRIGSQNADQLFLKKRRIGLSRFINLVMKHPKLSNDDLVLTFLTVRTDLTSWRKQATYDTSNEFADKKISQEFMKMWKKEFAEQWNQAASCIDTSMELWYRITLLLERHEKRIMQMVHERNFFETLVDNFSEVTPKLYPVQQNDTILDINNNLSIIKKHLETTSSICKQETEEISGTLSPKFKIFTDILLSLRSLFERYKIMAANNVVELQRHVELNKEKLESMKGKPDVSGAEYDRIKKIIQKDRRSIIEQSNRAWLIRQCILEEFTIFQETQFLITRAFQDWAKLNSNHAGLKLNEWEKLVTSIMDMPISRE
notes: Mvp1, S. cerevisiae sorting nexin with PX and BAR domains, codons 1-511, amplified from genomic DNA of W303A/alpha diploids; Two purification strategies: N-terminal His6 fusion with thrombin site (no cleavage described) or C-terminal MBP fusion cleaved with PreScission; also called wild type; SNX-BAR Mvp1; source: E. coli BL21-Codon Plus(DE3)-RIPL, purified (Ni-IDA or amylose resin, anion …)
Turning to B1, the binding entry in assay [1] and in assay [2] was “binds” each time.
